From publication PMC9038911
No constants are given. Whether binding was seen depends on the method and setting. For some assays here: In cells and extracts the contact can be indirect. For some assays here: Binding can be weak; no strength is given. Where a sequence is shown, tags or fusion partners need not be part of it.

Columns and labels:
[1] = target: T1, AtPGIP1-3xFlag (Arabidopsis thaliana) (UniProt Q9M5J9); experiment: co-IP; modified co-IP: purified competing protein from yeast (0, 100 ng and 10 μg) added to leaf lysate of co-infiltrated leaves, 30 min, then Flag IP and anti-GFP blot; pair co-expressed in the leaves
T1 sequence: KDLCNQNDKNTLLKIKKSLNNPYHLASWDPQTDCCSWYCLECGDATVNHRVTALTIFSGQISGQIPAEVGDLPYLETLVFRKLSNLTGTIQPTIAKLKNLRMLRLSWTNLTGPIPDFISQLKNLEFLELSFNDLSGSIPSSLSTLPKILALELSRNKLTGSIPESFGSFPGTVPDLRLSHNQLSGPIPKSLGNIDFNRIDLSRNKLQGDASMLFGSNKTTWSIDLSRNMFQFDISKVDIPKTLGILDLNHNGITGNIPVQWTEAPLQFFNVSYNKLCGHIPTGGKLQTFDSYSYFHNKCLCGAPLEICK

[2] = target: T1, AtPGIP1-3xFlag (Arabidopsis thaliana); experiment: co-IP; GFP- and 3xFlag-tagged constructs co-infiltrated in N. benthamiana; leaf lysate 48 h after infiltration; anti-Flag agarose (Flag IP) or anti-GFP agarose (GFP IP); Western blot with anti-GFP or anti-Flag
[3] = target: T1, AtPGIP1-3xFlag (Arabidopsis thaliana); experiment: condition: only with 10 μg purified SsPINE1-GFP added to the lysate; co-IP; modified co-IP: purified competing protein from yeast (0, 100 ng and 10 μg) added to leaf lysate of co-infiltrated leaves, 30 min, then Flag IP and anti-GFP blot; pair co-expressed in the leaves
[4] = target: T2, signal peptide-truncated SsPINE1 (SsPINE1^ΔSP), yeast two-hybrid fusion (Sclerotinia sclerotiorum); experiment: two-hybrid; targeted assay, GAL4-based Matchmaker Gold; pGADT7 and pGBKT7 constructs co-transformed in pairs into yeast strain Gold; SD/-His,-Ade,-Leu,-Trp with aureobasidin A, X-α-gal staining; SsPINE1 and AtPGIP1 each as bait and as prey
T2 sequence: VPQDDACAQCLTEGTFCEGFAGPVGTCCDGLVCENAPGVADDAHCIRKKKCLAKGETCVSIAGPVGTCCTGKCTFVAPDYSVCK

[5] = target: SsPG1-GFP (expressed in N. benthamiana) (Sclerotinia sclerotiorum); experiment: co-IP; GFP- and 3xFlag-tagged constructs co-infiltrated in N. benthamiana; leaf lysate 48 h after infiltration; anti-Flag agarose (Flag IP) or anti-GFP agarose (GFP IP); Western blot with anti-GFP or anti-Flag

For “SsPG1-GFP (expressed in N. benthamiana) (Sclerotinia sclerotiorum) (enzyme)”, the binding [1] was “binds”, the binding [2] was “binds” and the binding [3] was “no binding”.

For “AT2G35790, yeast two-hybrid prey (Arabidopsis thaliana)”, the binding [4] was “no binding”.

B1: AtPGIP1-3xFlag (protein, UniProt Q9M5J9 22-330)
chain: T1 sequence
With B1 the binding [5] was “binds”.
